PubChem BioAssay AID686943, Drosophila RNAi Screening Center, 2013

- Screen: 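Knockdowns that increase or decrease active ERK after insulin receptor stimulation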 (primary screen)
- Cell system: Drosophila S2R+ haemocyte-like cells expressing YFP-tagged ERK (Rolled)
- Reagents: long dsRNA against Drosophila genes
- Treatment: insulin stimulation versus unstimulated cells; dose and duration not given
- Measured: 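Antibody staining for doubly phosphorylated ERK divided by ERK-YFP signal, as plate z-scores, in insulin-treated and untreated cells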
- Scale: replicate 1, z-score of dpERK with insulin and replicate 2, z-score of dpERK with insulin: higher = more active ERK per ERK-YFP after insulin
In all, the deposit lists about 23,000 reagents; this is a random part of those with a known target gene and a result. 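Extra replicates exist only for a retested subset of genes; insulin dose and duration not given; both raised and lowered dpERK matter.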 Names joined by + are all predicted targets of the reagent. Not all columns of the deposit are shown. Not stated in the record: the amount of reagent, the time to read-out.

gene	DRSC id	replicate 1, z-score of dpERK with insulin	replicate 2, z-score of dpERK with insulin
Ser (Serrate)	DRSC16856	0.37	-0.18
Alp4 (Alkaline phosphatase 4)	DRSC14116	0.88	-0.04
MFS12 (Major Facilitator Superfamily Transporter 12)	DRSC07268	0.12	-0.02
Hibch (3-hydroxyisobutyryl-CoA hydrolase)	DRSC15705	1.15	0.35
Klp10A (Kinesin-like protein at 10A)	DRSC19601	-0.23	-1.35
CG15386 + CG42371	DRSC00400	0.42	0.42
Ugt307A1 (UDP-glycosyltransferase family 307 member A1)	DRSC02138	-0.16	-0.3
Atg17 (Autophagy-related 17)	DRSC12221	0.36	0.54
CG30016	DRSC05242	0.29	-0.27
CG7120	DRSC08921	-0.5	0
CG7120	DRSC10773	0.31	-0.66
CG1677	DRSC18116	-0.9	0.03
CG15185	DRSC12565	0.32	-0.6
RpL10Ab (Ribosomal protein L10Ab)	DRSC10798	-3.05	-1.36
CG9752	DRSC04562	0.42	-0.08
CG2269	DRSC06833	0.68	0.99
su(r) (suppressor of rudimentary)	DRSC18705	1.49	0.97
Cnx99A + Cnx14D	DRSC16610	-0.55	-0.96
CG42394 + CG6567	DRSC12821	-0.29	0.82
qkr54B (quaking related 54B)	DRSC07670	0.58	0.46
Nedd4	DRSC11234	-0.1	-1.05
Nedd4	DRSC21548	0.29	0.17
CG10019	DRSC00279	-2.08	-3.57
ppk31 (pickpocket 31)	DRSC13811	-0.06	0.21
Ppi1 (Protein phosphatase 1c interacting protein 1)	DRSC15421	-0.93	-0.23
CG31522	DRSC12005	-0.17	-0.03
Ccp84Ad	DRSC12589	1.44	1.25
Ccp84Ad	DRSC22854	0.28	1.09
TfIIFalpha (Transcription factor IIFalpha)	DRSC12608	2.98	3.84
okr (okra)	DRSC00834	-0.23	-0.24
CG31038	DRSC15051	-0.41	-0.37
CG31038	DRSC16326	0.05	0.43
CG31038	DRSC16327	-0.42	0.05
CG17612	DRSC00505	-0.14	-0.54
Wdr62 (WD repeat domain 62)	DRSC00081	-0.19	-0.36
Wdr62 (WD repeat domain 62)	DRSC00082	-0.47	-0.23
Wdr62 (WD repeat domain 62)	DRSC00701	-0.35	-1.97
Wdr62 (WD repeat domain 62)	DRSC21913	-0.04	0.82
CG10516	DRSC09738	0.71	0.69

Single entries from above:
Value for Ccp84Ad [DRSC12589] under “replicate 1, z-score of dpERK with insulin”: 1.44
Value for Ppi1 (Protein phosphatase 1c interacting protein 1) [DRSC15421] in “replicate 2, z-score of dpERK with insulin”: -0.23
Alp4 (Alkaline phosphatase 4) [DRSC14116], replicate 1, z-score of dpERK with insulin → 0.88
Entry of CG31038 [DRSC16326] in “replicate 2, z-score of dpERK with insulin”: 0.43
Under “replicate 1, z-score of dpERK with insulin”, Atg17 (Autophagy-related 17) [DRSC12221] reads 0.36
Wdr62 (WD repeat domain 62) [DRSC00701], replicate 1, z-score of dpERK with insulin: -0.35

Further reagents:
gene	DRSC id	replicate 1, z-score of dpERK with insulin	replicate 2, z-score of dpERK with insulin
CG32987	DRSC22373	-2.27	-0.74
sncRNA:430e + His2A:CG33859 + His2A:CG33817 + 37 more	DRSC21264	-4.34	-2.89
CG3534	DRSC15494	0.48	2.06
CG40298	DRSC22274	3.13	0.41
CG18666	DRSC02694	-0.14	-0.11
Rab9	DRSC03281	0.87	1.21
Rack1 (Receptor of activated protein kinase C 1)	DRSC03405	1.86	2.38
CG3862	DRSC00631	0.58	-0.05
Ski6	DRSC02491	0.18	0.45
CG15014	DRSC08468	-0.8	-0.95
CG2921	DRSC04324	0.45	0.37
UQCR-Q (Ubiquinol-cytochrome c reductase ubiquinone-binding protein)	DRSC10886	-0.55	-0.46
CG40485	DRSC20624	-1.23	-0.4
Clamp (Chromatin-linked adaptor for MSL proteins)	DRSC03718	0.31	0.75
Clamp (Chromatin-linked adaptor for MSL proteins)	DRSC21682	1.47	1.46
Ugt303A1 (UDP-glycosyltransferase family 303 member A1)	DRSC15641	-0.47	-0.01
CG15036	DRSC17968	-2	-2.82
LanB1	DRSC03360	0.2	0.39
ple (pale)	DRSC11383	-1.5	-1.74
CG43191	DRSC05326	0.19	0.19
CG13796 + CG31904	DRSC22161	-0.6	-0.02
Obp99b (Odorant-binding protein 99b)	DRSC16264	-1.74	-0.55
CG5172	DRSC19936	2.13	2.27
Cbl (Cbl proto-oncogene)	DRSC10764	-0.18	-0.02
Cbl (Cbl proto-oncogene)	DRSC11111	-0.24	0.41
CG12126	DRSC06103	0.42	0.34
CG31075	DRSC16016	0.48	0
dimm (dimmed)	DRSC03100	0.05	0.88
COX8 (Cytochrome c oxidase subunit 8)	DRSC11814	-0.63	-1.58
CREG (Cellular Repressor of E1A-stimulated Genes)	DRSC16595	0.05	0.51
CaMKII (Calcium/calmodulin-dependent protein kinase II)	DRSC17214	-0.06	-2.04
CG12206	DRSC17828	-3.87	-0.03
RpS28a (Ribosomal protein S28a)	DRSC15064	0.81	-0.21
betaggt-I (beta subunit of type I geranylgeranyl transferase)	DRSC03494	0.38	0.14
